PubChem BioAssay AID1159584 | Peter MacCallum Cancer Centre, 2016
Here is one part, drawn at random, of about 18,000 deposited reagents. Reagents against one gene are numbered here. Not all columns of the deposit are shown. Not stated in the record: the amount of reagent, the time to read-out.

Purpose: 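Knock-downs that harm CDH1-null cells more than parental MCF10A cells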 (primary screen)
Cell system: human MCF10A breast epithelial cells, parental and CDH1-null
Knock-down reagent: siRNA against human genes
Measurement: 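ATP luminescence (CellTiter-Glo) viability per line relative to mean mock wells over all plates, and the ratio of CDH1-null to parental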
Scale: CDH1-null / parental viability ratio: higher = CDH1-null cells survive relatively better than parental; CDH1-null viability vs mock: higher = more viable CDH1-null cells

The first 8 records, to show the layout:
Gene	reagent no.	CDH1-null / parental viability ratio	CDH1-null viability vs mock (fraction of mock)
FBLN2 (fibulin 2)	1	1.38	0.76
CTDSPL2 (CTD small phosphatase like 2)	1	0.95	0.78
DMRT2 (doublesex and mab-3 related transcription factor 2)	1	1.12	1.11
NHEJ1 (non-homologous end joining factor 1)	1	0.94	0.98
SEZ6L (seizure related 6 homolog like)	1	1.01	0.78
SNAPC4 (small nuclear RNA activating complex polypeptide 4)	1	1.12	0.74
GLRA1 (glycine receptor alpha 1)	1	1.23	1
TAAR2 (trace amine associated receptor 2)	1	1.4	0.95

The listing, repeating the preview:
Gene	reagent no.	CDH1-null / parental viability ratio	CDH1-null viability vs mock (fraction of mock)
FBLN2 (fibulin 2)	1	1.38	0.76
CTDSPL2 (CTD small phosphatase like 2)	1	0.95	0.78
DMRT2 (doublesex and mab-3 related transcription factor 2)	1	1.12	1.11
NHEJ1 (non-homologous end joining factor 1)	1	0.94	0.98
SEZ6L (seizure related 6 homolog like)	1	1.01	0.78
SNAPC4 (small nuclear RNA activating complex polypeptide 4)	1	1.12	0.74
GLRA1 (glycine receptor alpha 1)	1	1.23	1
TAAR2 (trace amine associated receptor 2)	1	1.4	0.95
C14orf93 (chromosome 14 open reading frame 93)	1	1.04	1.06
DPYSL4 (dihydropyrimidinase like 4)	1	1.18	0.99
FCGR1A (Fc gamma receptor Ia)	1	1.06	0.91
COIL (coilin)	1	0.81	0.75
IRF3 (interferon regulatory factor 3)	1	0.88	0.82
LY86 (lymphocyte antigen 86)	1	1.09	0.96
KRT20 (keratin 20)	1	1.13	0.98
NLGN4X (neuroligin 4 X-linked)	1	0.81	0.59
CDKN2A (cyclin dependent kinase inhibitor 2A)	1	0.67	0.42
GSTA4 (glutathione S-transferase alpha 4)	1	0.89	0.68
FBXO31 (F-box protein 31)	1	0.83	0.65
EXOC3 (exocyst complex component 3)	1	1.02	0.61
HOXC12 (homeobox C12)	1	1.25	0.9
MIS18A (MIS18 kinetochore protein A)	1	1.29	0.8
ASAH2 (N-acylsphingosine amidohydrolase 2)	1	1.17	0.75
CAPS2 (calcyphosine 2)	1	0.89	0.73
IL33 (interleukin 33)	1	1.17	0.7
LRRC34 (leucine rich repeat containing 34)	1	1.14	0.92
GOSR2 (golgi SNAP receptor complex member 2)	1	0.86	0.76
RNF2 (ring finger protein 2)	1	0.97	0.74
SV2A (synaptic vesicle glycoprotein 2A)	1	0.95	0.94
H4C16 (H4 histone 16)	1	1.08	0.54
PPA1 (inorganic pyrophosphatase 1)	1	0.93	0.53
OSBPL5 (oxysterol binding protein like 5)	1	0.99	0.77
CEP162 (centrosomal protein 162)	1	0.96	0.88
MYBBP1A (MYB binding protein 1a)	1	1.32	0.7
KCTD12 (potassium channel tetramerization domain containing 12)	1	1.71	0.82
BCL9 (BCL9 transcription coactivator)	1	0.82	0.6
LGALS12 (galectin 12)	1	1.05	1
P2RY6 (pyrimidinergic receptor P2Y6)	1	1.05	0.8
MALSU1 (mitochondrial assembly of ribosomal large subunit 1)	1	0.86	1
HDAC9 (histone deacetylase 9)	1	0.65	0.64
SF3B4 (splicing factor 3b subunit 4)	1	1	0.4
HCG27 (HLA complex group 27)	1	1.24	1.23
EP300 (EP300 lysine acetyltransferase)	1	1.09	0.88
NOL8 (nucleolar protein 8)	1	1.53	0.92
PGAP3 (post-GPI attachment to proteins phospholipase 3)	1	1.04	0.85
MPHOSPH9 (M-phase phosphoprotein 9)	1	0.91	0.8
SZT2 (SZT2 subunit of KICSTOR complex)	1	0.91	0.78
SZT2 (SZT2 subunit of KICSTOR complex)	2	1.06	0.74
ACOX3 (acyl-CoA oxidase 3, pristanoyl)	1	1.07	1.02
MT1X (metallothionein 1X)	1	1.17	0.76
MRGPRX4 (MAS related GPR family member X4)	1	1.4	1.02
APLNR (apelin receptor)	1	0.8	0.78
CMTM4 (CKLF like MARVEL transmembrane domain containing 4)	1	0.85	0.68
GRIA2 (glutamate ionotropic receptor AMPA type subunit 2)	1	1.11	0.78
SMPDL3A (sphingomyelin phosphodiesterase acid like 3A)	1	1.02	0.92
BATF2 (basic leucine zipper ATF-like transcription factor 2)	1	1.07	0.78
STK39 (serine/threonine kinase 39)	1	0.68	0.42
ERP29 (endoplasmic reticulum protein 29)	1	1.47	0.75
OR4F16 (olfactory receptor family 4 subfamily F member 16)	1	1.34	1.07
ZNF48 (zinc finger protein 48)	1	0.77	0.43
TM7SF3 (transmembrane 7 superfamily member 3)	1	1.01	0.84
NUP54 (nucleoporin 54)	1	1.16	0.85
TMEM151A (transmembrane protein 151A)	1	1	0.76
MINDY1 (MINDY lysine 48 deubiquitinase 1)	1	1.03	0.92
GJA1 (gap junction protein alpha 1)	1	1.01	1.12
KLRK1 (killer cell lectin like receptor K1)	1	0.96	0.76
DET1 (DET1 partner of COP1 E3 ubiquitin ligase)	1	0.79	0.68
IL15 (interleukin 15)	1	1.16	1.17
PDE7A (phosphodiesterase 7A)	1	0.98	1.15
TCTA (T cell leukemia translocation altered)	1	0.93	0.75
ERCC4 (ERCC excision repair 4, endonuclease catalytic subunit)	1	0.97	0.74
ITFG1 (integrin alpha FG-GAP repeat containing 1)	1	0.97	0.76
TSSK3 (testis specific serine kinase 3)	1	0.69	0.57
NCOA6 (nuclear receptor coactivator 6)	1	0.9	0.86
MIX23 (mitochondrial matrix import factor 23)	1	0.79	0.58
EMX2 (empty spiracles homeobox 2)	1	0.77	0.54
NASP (nuclear autoantigenic sperm protein)	1	1.11	0.4
JAM2 (junctional adhesion molecule 2)	1	0.86	0.64
COMMD7 (COMM domain containing 7)	1	1.44	0.72
MIF4GD (MIF4G domain containing)	1	0.93	0.51
MTUS1 (microtubule associated scaffold protein 1)	1	0.86	0.64
PXN (paxillin)	1	0.82	0.62
ZNF562 (zinc finger protein 562)	1	1.22	1
KAT2A (lysine acetyltransferase 2A)	1	0.84	0.77
NUDT16L1 (nudix hydrolase 16 like 1)	1	0.75	0.42
SLC16A2	1	0.87	0.98
MAZ (MYC associated zinc finger protein)	1	0.98	0.92
